Results of single-concentration screens

By UniProt entry, the sequences of proteins in these tests, tags left out. Residues count along the entry.
UniProt Q4DA54, 1-478: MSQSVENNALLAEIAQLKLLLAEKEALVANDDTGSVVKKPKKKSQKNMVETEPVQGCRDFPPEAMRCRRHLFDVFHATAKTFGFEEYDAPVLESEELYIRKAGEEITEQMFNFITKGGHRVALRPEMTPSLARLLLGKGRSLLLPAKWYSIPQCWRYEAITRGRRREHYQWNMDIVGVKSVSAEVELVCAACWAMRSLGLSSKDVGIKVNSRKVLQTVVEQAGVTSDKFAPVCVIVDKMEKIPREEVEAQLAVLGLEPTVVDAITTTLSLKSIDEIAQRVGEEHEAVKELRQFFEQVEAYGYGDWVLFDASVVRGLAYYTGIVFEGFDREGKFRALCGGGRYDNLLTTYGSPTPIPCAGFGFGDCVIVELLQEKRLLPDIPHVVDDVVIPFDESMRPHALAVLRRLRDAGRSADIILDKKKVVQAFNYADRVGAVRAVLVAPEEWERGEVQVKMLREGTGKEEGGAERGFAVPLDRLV
UniProt A4I591, 1-473: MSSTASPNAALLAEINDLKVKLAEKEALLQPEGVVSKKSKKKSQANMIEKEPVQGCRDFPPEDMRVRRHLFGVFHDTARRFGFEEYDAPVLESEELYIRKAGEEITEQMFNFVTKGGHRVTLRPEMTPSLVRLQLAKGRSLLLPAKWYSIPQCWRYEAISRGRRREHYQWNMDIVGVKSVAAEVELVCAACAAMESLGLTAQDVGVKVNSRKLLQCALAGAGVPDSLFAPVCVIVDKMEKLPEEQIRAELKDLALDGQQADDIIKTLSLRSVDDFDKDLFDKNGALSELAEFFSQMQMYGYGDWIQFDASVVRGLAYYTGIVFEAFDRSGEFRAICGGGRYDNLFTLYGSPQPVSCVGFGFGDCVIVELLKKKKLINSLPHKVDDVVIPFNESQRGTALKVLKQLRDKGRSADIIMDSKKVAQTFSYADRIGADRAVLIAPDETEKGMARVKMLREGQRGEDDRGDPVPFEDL
UniProt Q8IDJ8, 1-583: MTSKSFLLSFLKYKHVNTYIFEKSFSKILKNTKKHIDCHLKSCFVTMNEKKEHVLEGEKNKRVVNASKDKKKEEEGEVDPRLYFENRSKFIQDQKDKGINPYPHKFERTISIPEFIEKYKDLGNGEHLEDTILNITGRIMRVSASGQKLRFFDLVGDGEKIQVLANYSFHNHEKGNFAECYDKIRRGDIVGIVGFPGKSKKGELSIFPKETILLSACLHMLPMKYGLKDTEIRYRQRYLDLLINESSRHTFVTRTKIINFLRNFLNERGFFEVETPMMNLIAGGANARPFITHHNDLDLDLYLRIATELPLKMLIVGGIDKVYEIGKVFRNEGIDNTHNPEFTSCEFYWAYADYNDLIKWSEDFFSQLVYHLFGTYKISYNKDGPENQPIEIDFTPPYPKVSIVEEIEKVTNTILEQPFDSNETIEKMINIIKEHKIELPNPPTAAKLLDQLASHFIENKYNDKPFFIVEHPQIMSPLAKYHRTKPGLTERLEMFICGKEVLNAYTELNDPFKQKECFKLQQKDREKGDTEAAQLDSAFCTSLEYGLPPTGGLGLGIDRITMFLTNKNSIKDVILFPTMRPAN
UniProt P9WNZ1, whole entry: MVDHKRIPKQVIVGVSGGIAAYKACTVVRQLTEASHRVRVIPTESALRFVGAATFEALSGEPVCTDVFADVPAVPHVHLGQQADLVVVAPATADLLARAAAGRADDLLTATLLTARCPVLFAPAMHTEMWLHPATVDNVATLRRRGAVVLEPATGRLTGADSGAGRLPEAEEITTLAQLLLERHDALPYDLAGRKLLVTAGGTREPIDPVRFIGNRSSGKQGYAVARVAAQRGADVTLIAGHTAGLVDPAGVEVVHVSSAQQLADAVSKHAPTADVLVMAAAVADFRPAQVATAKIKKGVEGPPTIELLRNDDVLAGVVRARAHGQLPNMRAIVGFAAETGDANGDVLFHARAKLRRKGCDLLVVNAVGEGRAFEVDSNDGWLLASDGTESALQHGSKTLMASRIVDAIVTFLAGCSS

Results are given as percent effect.
How 0% and 100% were set is not recorded. Most values in the screen are low, and negative values occur.
The compounds are a random part of those screened.
A dash means the value is not listed here; it may have been measured.

TcHisRS: 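Histidine-tRNA ligase, Trypanosoma cruzi CL Brener (UniProt Q4DA54). Enzyme assay of histidyl-tRNA synthetase; the read-out is not stated. Concentration: 30 µM. The record gives no direction; compounds that gave an IC50 in retests scored well above the rest, so higher reads as stronger inhibition. About 69,000 compounds were tested under these conditions; 0.045% (about 31) showed 50% or more at least once.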
LiHisRS: 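Histidine-tRNA ligase, Leishmania infantum (UniProt A4I591). Enzyme assay of histidyl-tRNA synthetase; the read-out is not stated. Compounds at 30 µM. Direction is inferred from retests: higher values go with stronger inhibition. The assay is labelled LdHisRS but filed under L. infantum. About 69,000 compounds were tested under these conditions; 0.6% (about 410) showed 50% or more at least once.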
Toxoplasma: 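Assay of Toxoplasma gondii numbers, read through their beta-galactosidase reporter with a colour substrate. Concentration: 10 µM. Higher reads as fewer parasites (inferred from which compounds were picked for retests). About 67,000 compounds were tested under these conditions; 0.38% (about 260) showed 50% or more at least once.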
PfKRS1: 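Lysine-tRNA ligase, Plasmodium falciparum 3D7 (UniProt Q8IDJ8). Enzyme assay of the cytosolic lysyl-tRNA synthetase in 384-well plates, read by luminescence. Compounds at 30 µM. Direction is inferred from only a few compounds that gave an IC50; most scored high, so higher reads as stronger inhibition. Size under these conditions: about 69,000 compounds, about 49 of them at 50% or above in at least one test.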
CoaBC: 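Enzyme assay of CoaBC with a phosphate dye (Biomol Green) read at 650 nm. Target: Coenzyme A biosynthesis protein CoaBC, Mycobacterium tuberculosis (UniProt P9WNZ1). Concentration: 30 µM. Higher reads as stronger inhibition, judged from the few compounds that gave an IC50. Most strong results did not repeat in a second test. Of about 67,000 compounds tested this way, about 40 (0.06%) reached 50% or more in at least one test.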

{"smiles": "COc1cc(C)nc(N2CCN(C(=O)CCn3cc(C)cn3)CC2)n1", "TcHisRS": 6.767, "LiHisRS": 5.618, "PfKRS1": 6.151, "CoaBC": -4.627}
{"smiles": "CC(C)c1noc(OCC(=O)N(C)C(C)C)n1", "TcHisRS": 3.96, "LiHisRS": 18.48, "Toxoplasma": 7.008, "PfKRS1": 1.655, "CoaBC": 3.753}
{"smiles": "CC(C)c1noc(CCCC(=O)NCCOc2ccccc2)n1", "TcHisRS": -0.578, "LiHisRS": -4, "Toxoplasma": -8.049, "PfKRS1": 2.04, "CoaBC": -9.504}
{"smiles": "CCCC(NC(=O)c1occc1C)c1nnn[nH]1", "stereo": "centres undefined", "TcHisRS": 6.667, "LiHisRS": 13.39, "Toxoplasma": 5.581, "PfKRS1": 5.192, "CoaBC": -4.959}
{"smiles": "COCc1cc(N2CCN(Cc3ccncc3)CC2)n2nccc2n1", "TcHisRS": 4.124, "LiHisRS": 14.29, "Toxoplasma": -10.85, "PfKRS1": -1.343, "CoaBC": 11.21}
{"smiles": "CC1CCN(C(CNC(=O)CCn2cccn2)c2cccs2)CC1", "stereo": "centres undefined", "TcHisRS": -7.054, "LiHisRS": 10.68, "Toxoplasma": 0.6608, "PfKRS1": 2.336, "CoaBC": -2.232}
{"smiles": "Cc1ccc(CN2CCOC3(COCCN(CCN(C)C)C3)C2)o1", "stereo": "centres undefined", "TcHisRS": 3.825, "LiHisRS": 13.87, "PfKRS1": 0.5124, "CoaBC": -8.29}
{"smiles": "[H][C@@]12CCN(C(=O)c3cnoc3C)C[C@]1([H])[C@@H](CN1CCCC1)OC2", "Toxoplasma": -1.204}
{"smiles": "CN(CC(F)(F)F)C(=O)CNC(=O)N1CCC(N2CCCC2)C1", "stereo": "centres undefined", "TcHisRS": 11.88, "LiHisRS": 4.762, "Toxoplasma": -15.02, "PfKRS1": -2.196, "CoaBC": 4.126}
{"smiles": "Cc1ccc(S(=O)(=O)N2CCC(c3n[nH]cc3C)C2)cc1", "stereo": "centres undefined", "TcHisRS": 2.996, "LiHisRS": 10, "Toxoplasma": 2.75, "PfKRS1": 2.289, "CoaBC": 7.559}
{"smiles": "CCS(=O)(=O)N1Cc2nccn2CC(COc2cccnc2)C1", "stereo": "centres undefined", "TcHisRS": 1.622, "LiHisRS": 16.98, "Toxoplasma": 1.068, "PfKRS1": 3.702, "CoaBC": 2.665}
{"smiles": "CCN(CCC(F)(F)F)S(=O)(=O)c1cccc(F)c1C#N", "TcHisRS": 5.051, "LiHisRS": 3.175, "Toxoplasma": 4.543, "PfKRS1": 4.605, "CoaBC": 5.186}
{"smiles": "CCn1nc(CNC(C)(C)CO)c(-c2ccccc2)n1", "TcHisRS": 1.739, "LiHisRS": 6.897, "Toxoplasma": 23.23, "PfKRS1": 1.206, "CoaBC": -0.9238}
{"smiles": "Clc1ccc(CN2CCC3(CC2)CC(c2cccnc2)=NO3)cc1", "TcHisRS": 7.692, "LiHisRS": -2.759, "Toxoplasma": 11.6, "PfKRS1": -3.501, "CoaBC": 4.737}
{"smiles": "CN(C)C(=O)N1C[C@H](Oc2ccccn2)[C@H]2OCCC[C@H]21", "TcHisRS": 6.522, "LiHisRS": 8.738, "PfKRS1": -0.5468, "CoaBC": 3.169}
{"smiles": "O=C(NC1CC1)C1CCCN(c2cccc(C(F)(F)F)n2)C1", "stereo": "centres undefined", "TcHisRS": 9.74, "LiHisRS": 12.9, "Toxoplasma": 0.0609, "PfKRS1": 6.045, "CoaBC": -1.814}
{"smiles": "COc1ncccc1CN1C[C@H]2C[C@@H](C(=O)NCC3CC3)N(C)[C@H]2C1", "TcHisRS": -3.365, "LiHisRS": -6.422, "PfKRS1": 4.486, "CoaBC": -0.9412}
{"smiles": "[H][C@@]12CCN(C[C@@H]1c1cc(-c3cccs3)nn1C)[C@@H](CNC(=O)NCC)C2", "Toxoplasma": 6.173}
{"smiles": "Cc1nn(C)cc1-c1ccnc(N2CCN(c3cnccn3)CC2)n1", "TcHisRS": 3.352, "LiHisRS": -1.042, "Toxoplasma": 2.482, "PfKRS1": -1.579, "CoaBC": 0}
{"smiles": "O=C(NCC1CCS(=O)(=O)C1)N(Cc1ccco1)C1CC1", "stereo": "centres undefined", "TcHisRS": 0.5291, "LiHisRS": 25.33, "Toxoplasma": -13.99, "PfKRS1": 6.289, "CoaBC": 4.97}
{"smiles": "Cc1nc(CN2CCC3(CC2)CCN(C(=O)c2cscn2)C3)cs1.O=C(O)C(F)(F)F", "Toxoplasma": -7.741}
{"smiles": "COc1ccccc1C(=O)Nc1ccc([C@@H](O)[C@H]2COCC(=O)N2)cc1", "TcHisRS": 1.493, "LiHisRS": 16.22, "PfKRS1": 3.864, "CoaBC": 15.52}
{"smiles": "Cc1ccc2c(n1)N(CC1CC1)CCN(S(=O)(=O)C1CC1)C2", "TcHisRS": 5.747, "LiHisRS": 18, "PfKRS1": 6.64, "CoaBC": 6.762}
{"smiles": "O=C(O)C(F)(F)F.[H][C@@]12CCN(Cc3nccs3)C[C@]1([H])O[C@H](C(=O)N(C)C)C2", "Toxoplasma": -3.927}
{"smiles": "COCC(=O)N1CCCC(Cc2cnc(-c3c(C)n[nH]c3C)cn2)C1", "stereo": "centres undefined", "TcHisRS": 5.224, "LiHisRS": -68.42, "Toxoplasma": 5.306, "PfKRS1": 1.144, "CoaBC": 1.946}
{"smiles": "CCC(C)c1ccc(NC(=O)C2CCN(C(=O)COC)CC2)cc1", "stereo": "centres undefined", "TcHisRS": 6.061, "LiHisRS": 3.279, "Toxoplasma": -4.269, "PfKRS1": 4.235, "CoaBC": -2.558}
{"smiles": "[H][C@]12CC[C@]([H])(CN(c3ncnc4ccsc34)C1)N(CC1CC1)C2=O", "Toxoplasma": 6.89}

Some entries from above, unchanged:

SMILES,TcHisRS,LiHisRS,Toxoplasma,PfKRS1,CoaBC
[H][C@@]12CCN(C[C@@H]1c1cc(-c3cccs3)nn1C)[C@@H](CNC(=O)NCC)C2,-,-,6.173,-,-
Cc1nc(CN2CCC3(CC2)CCN(C(=O)c2cscn2)C3)cs1.O=C(O)C(F)(F)F,-,-,-7.741,-,-
CCC(C)c1ccc(NC(=O)C2CCN(C(=O)COC)CC2)cc1 (centres undefined),6.061,3.279,-4.269,4.235,-2.558

Measurements from “University of Dundee, Small-Polar-MMV Screening Library” (2021), ChEMBL document CHEMBL3988442.